Experimental findings from PMC8400955 (Pharmaceuticals, 2021) are described below.

The term Papp A→B denotes the apparent permeability from the apical to the basolateral side of a cell layer. A higher Papp A→B goes with ready permeation. In general, Papp B→A refers to the apparent permeability from the basolateral to the apical side of a cell layer.

The nature of the data set: Bidirectional permeability across Caco-2 cell monolayers. Format: in vitro ADME. The following applies: human; Caco-2, 5 μM. The method, then: The bidirectional permeability and absorption mechanism of ZB716 was evaluated across Caco-2 cell monolayers.
The apical-to-basolateral (A–B) and basolateral-to-apical (B–A) transport of ZB716 in HBSS (25 mM HEPES) with 1% BSA was measured across Caco-2 cell monolayers. […] All incubations were performed in triplicate, and the integrity of the cell monolayers was confirmed using the marker Lucifer yellow.
The slope, k, was determined by linear
using the following equation: […]
1.4 Intestinal Mucosal Permeation of ZB716
Papp= VAArea х timeх ሾdrugሿreceiverሾdrugሿinitial,donor
A general note: Caco-2 monolayers are a common model of the intestinal barrier.

`CC(C)NCC(O)COc1ccc(CC(N)=O)cc1` (centres unmarked) [Atenolol, atenolol, reference compound]: the Papp A→B at 120 min, 5 μM is 0.506 ± 0.034 ×10⁻⁶ cm/s and the Papp B→A at 120 min, 5 μM was 0.635 ± 0.042 ×10⁻⁶ cm/s.
